At least one peptide structure holds a part that was inferred or is arguable (an end, a ring closure or a residue). Residues, ends and D or L forms follow the SMILES beside them. *: point of attachment. Biotin = O=C1N[C@H]2[C@H](CS[C@H]2CCCCC(=O)*)N1; Ahx = NCCCCCC(=O)O
Experiments:
[1] = tested on: Systemic sclerosis pulmonary fibrosis lung tissues; assay: MMP-1 induction in SSc pulmonary fibrosis lung tissue organ culture; format: cell-based, human; conditions: 10 μg/ml in the presence of TGFbeta, 120 hrs, conditioned media
Normal lung fibroblasts [2] = assay: Fibronectin in supernatants of TGFbeta-treated normal lung fibroblasts; format: cell-based, human; conditions: 72 hours, 10 μg/ml to 80 μg/ml
[3] = tested on: me-38 colon adenocarcinoma tumor cells; assay: Colon adenocarcinoma tumor growth in mice, peptide by oral gavage; format: in vivo; conditions: sMIC tolerant transgenic mice, 100 μg/mouse oral gavage twice/week
Protocol: For each of the experiments, descriptive statistics (means and standard deviations) for tumor volumes were calculated over time for each experimental group (i.e. Experiment 1: Control vs. BioE4 (FIG. 1); Experiment 2: PBS, Bio96, and BioE4-03 (FIG. 5)). Since tumor growth tends to be curvilinear, general linear mixed models (GLMMs) were created to estimate treatment-specific growth curves over time and to make comparisons between the peptide treatments and control. Separate GLMMs were constructed for each experiment, and each GLMM included random effects for each mouse, to control for the fact that the repeated volume measurements within a given mouse were correlated with one another. […] If a mouse's tumor grew too large, it was sacrificed; however, all tumor volumes measured prior to sacrifice were included in the modeling process. […]
sMIC tolerant transgenic (MB481 strain) mice (Liu et al, Perturbation of NK cell peripheral homeostasis accelerates prostate carcinoma metastasis. J. Clin. Invest. 123:4410, 2013) were injected with 1×10^5 me-38 colon adenocarcinoma tumor cells via subcutaneous injection When tumor size reached approximately 75 mm^3, treatment was started. start treatment at four group. […] Tumor volume was measured 3 times per week. […]

tumors = assay: Histologic analysis of tumors (H&E, Masson Trichrome); format: in vivo, mouse
Protocol: Histological analysis of tumors treated with vehicle alone, or with BioE4-03 or Bio96 peptides was performed.

[4] = tested on: A549 cells (human lung adenocarcinoma cells); assay: Gene expression in A549 cells by real-time PCR; format: cell-based; conditions: A549, 10 μg/ml, 48 hours
[5] = tested on: HCT116T cells (human colon carcinoma cells); assay: Gene expression in HCT116T cells by real-time PCR; format: cell-based; conditions: 10 μg/ml, 48 hours
[6] = tested on: lung tissues of patients with SSc; assay: Hydroxyproline in SSc lung tissue organ culture; format: cell-based, human; conditions: organ culture 72 hours
[7] = tested on: lung tissues of patients with IPF; assay: Hydroxyproline in IPF lung tissue organ culture; format: cell-based, human; conditions: organ culture 72 hours
[8] = tested on: lung tissues of normal donors; assay: Hydroxyproline and secreted Col1A1 in normal donor lung tissue organ culture after TGFbeta; format: cell-based, human; conditions: fibrosis induced using TGFbeta; for hydroxyproline levels: normal donor lung tissue
skin tissues from donors = assay: Col1A1 and fibronectin gene expression in TGFbeta-treated skin tissues; format: cell-based, human; conditions: fibrosis induced with TGFbeta
IL-6 = IL-6 mRNA (qPCR) and protein (ELISA) in A549 cells; format: cell-based, human; conditions: relative to vehicle controls; for expression of IL-6 mRNA: A549 cells, 48 hours, qPCR
Normal lung fibroblasts [9] = assay: Immunoblot of Collagen 1A1 and fibronectin in TGFbeta-treated normal lung fibroblasts; format: cell-based, human; conditions: 10 μg/ml peptide, immunoblotting
[10] = tested on: fibroblasts from lung tissues of normal donors; assay: Alpha smooth muscle actin qRT-PCR in TGFbeta-treated fibroblasts of normal donors; format: cell-based, human; conditions: 48 hours
[11] = H&E staining, tumors from treated mice

## CC(C)C[C@H](NC(=O)[C@H](CC(C)C)NC(=O)[C@H](CCCNC(=N)N)NC(=O)CNC(=O)CNC(=O)[C@H](CC(C)C)NC(=O)[C@H](CC(C)C)NC(=O)[C@H](CO)NC(=O)[C@H](CO)NC(=O)[C@H](C)NC(=O)[C@H](CCC(N)=O)NC(=O)CNC(=O)[C@@H](NC(=O)[C@H](C)NC(=O)[C@H](CO)NC(=O)[C@@H]1CCCN1C(=O)[C@H](C)NC(=O)[C@H](CCC(=O)O)NC(=O)[C@@H](NC(=O)[C@H](CCCNC(=N)N)NC(=O)[C@H](Cc1c[nH]c2ccccc12)NC(=O)[C@@H](NC(=O)[C@H](CCC(=O)O)NC(=O)[C@H](CS)NC(=O)[C@H](Cc1ccc(O)cc1)NC(=O)[C@@H](N)CO)[C@@H](C)O)[C@@H](C)O)[C@@H](C)O)C(=O)NCC(=O)N[C@@H](CCC(N)=O)C(=O)O [91-87] (H-SYCETWRTEAPSATGQASSLLGGRLLGQ-OH)
[1]
  MMP-1 production: no effect

## CC(C)C[C@H](NC(=O)[C@H](CC(C)C)NC(=O)[C@H](CO)NC(=O)[C@H](CO)NC(=O)[C@H](C)NC(=O)[C@H](CCC(N)=O)NC(=O)CNC(=O)[C@@H](NC(=O)[C@H](C)NC(=O)[C@H](CO)NC(=O)[C@@H]1CCCN1C(=O)[C@H](C)NC(=O)[C@H](CCC(=O)O)NC(=O)[C@@H](NC(=O)[C@H](CCCNC(=N)N)NC(=O)[C@H](Cc1c[nH]c2ccccc12)NC(=O)[C@@H](NC(=O)[C@H](CCC(=O)O)NC(=O)[C@H](CS)NC(=O)[C@H](Cc1ccc(O)cc1)NC(=O)[C@@H](N)CO)[C@@H](C)O)[C@@H](C)O)[C@@H](C)O)C(=O)O [91-96] (H-SYCETWRTEAPSATGQASSLL-OH)
[1]
  MMP-1 production: no effect

## CC(C)C[C@H](NC(=O)[C@H](CC(C)C)NC(=O)[C@H](CCCNC(=N)N)NC(=O)CNC(=O)CNC(=O)[C@H](CC(C)C)NC(=O)[C@H](CC(C)C)NC(=O)[C@H](CO)NC(=O)[C@H](CO)NC(=O)[C@H](C)NC(=O)[C@H](CCC(N)=O)NC(=O)CNC(=O)[C@@H](NC(=O)[C@H](C)N)[C@@H](C)O)C(=O)NCC(=O)N[C@@H](CCC(N)=O)C(=O)O [96-87, ATGQASSLLGGRLLGQ] (H-ATGQASSLLGGRLLGQ-OH)
Normal lung fibroblasts [2]
  TGFbeta-induced FN production: no effect

## CC(C)C[C@H](NC(=O)[C@H](CC(C)C)NC(=O)[C@H](CCCNC(=N)N)NC(=O)CNC(=O)CNC(=O)[C@H](CC(C)C)NC(=O)[C@H](CC(C)C)NC(=O)[C@H](CO)NC(=O)[C@H](CO)NC(=O)[C@H](C)NC(=O)[C@H](CCC(N)=O)NC(=O)CNC(=O)[C@@H](NC(=O)[C@H](C)NC(=O)[C@H](CO)NC(=O)[C@@H]1CCCN1C(=O)[C@H](C)NC(=O)[C@H](CCC(=O)O)NC(=O)[C@@H](NC(=O)[C@H](CCCNC(=N)N)NC(=O)[C@H](Cc1c[nH]c2ccccc12)NC(=O)[C@@H](NC(=O)[C@H](CCC(=O)O)NC(=O)[C@H](CS)NC(=O)[C@H](Cc1ccc(O)cc1)NC(=O)[C@H](CO)NC(=O)CCCCCNC(=O)CCCC[C@@H]1SC[C@@H]2NC(=O)N[C@@H]21)[C@@H](C)O)[C@@H](C)O)[C@@H](C)O)C(=O)NCC(=O)N[C@@H](CCC(N)=O)C(=O)N[C@@H](CO)C(=O)N[C@@H](C)C(=O)N[C@@H](C)C(=O)N[C@@H](CO)C(=O)N[C@@H](CS)C(=O)N[C@@H](Cc1c[nH]cn1)C(=O)N[C@@H](Cc1c[nH]cn1)C(=O)N[C@@H](C)C(N)=O [BioE4-03] ({Biotin-Ahx}-SYCETWRTEAPSATGQASSLLGGRLLGQSAASCHHA-NH2)
[3]; PBS control 151.1 mm^3 per day
  mean rate of increase in the tumor volume at day 21 (model-based estimate): 76.0 mm^3 per day
[3]; PBS control 1492.1 mm^3
  mean tumor volume at day 21 (model-based estimate): 767.7 mm^3
tumors; [11]
  tumor cell arrangement: looser cell arrangement
  tumor necrosis: notable necrosis
tumors; Masson Trichrome stain, compared to vehicle treated mice
  collagen bundles in the tumors: thinner collagen bundles
[4]
  Expression of IL-6: significantly reduced
  Expression of LOX: significantly reduced
  Expression of PAI-I: significantly reduced
  Expression of PDGF-A: significantly reduced
  Expression of VEGF-A: significantly reduced
  Expression of uPA: significantly reduced
  Expression of uPAR: significantly reduced
[5]
  Expression of IL-6: significantly reduced
  Expression of PAI-I: significantly reduced
  Expression of PDGF-A: significantly reduced
  Expression of VEGF-A: significantly reduced
  Expression of uPA: significantly reduced
[5]; n=2
  Expression of uPAR: significantly reduced
[6]
  hydroxyproline levels: significant reduction
[7]
  hydroxyproline levels: significant reduction
[8]
  hydroxyproline levels: significant reductions
Skin tissues from donors
  Col1A1 gene expression: reduces
  fibronectin (FN) gene expression: reduces
IL-6
  expression of IL-6 mRNA: significantly reduced

## CC(C)C[C@H](NC(=O)[C@H](CC(C)C)NC(=O)[C@H](CCCNC(=N)N)NC(=O)CNC(=O)CNC(=O)[C@H](CC(C)C)NC(=O)[C@H](CC(C)C)NC(=O)[C@H](CO)NC(=O)[C@H](CO)NC(=O)[C@H](C)NC(=O)[C@H](CCC(N)=O)NC(=O)CNC(=O)[C@@H](NC(=O)[C@H](C)N)[C@@H](C)O)C(=O)NCC(=O)N[C@@H](CCC(N)=O)C(=O)N[C@@H](CO)C(=O)N[C@@H](C)C(=O)N[C@@H](C)C(=O)N[C@@H](CO)C(=O)N[C@@H](CS)C(=O)N[C@@H](Cc1c[nH]cn1)C(=O)N[C@@H](Cc1c[nH]cn1)C(=O)N[C@@H](C)C(=O)O [96-17] (H-ATGQASSLLGGRLLGQSAASCHHA-OH)
Normal lung fibroblasts [9]
  Col1A1 levels induced by TGFbeta: effective at reducing
  FN levels induced by TGFbeta: effective at reducing
[1]
  MMP-1 production: induced

## CC(C)C[C@H](NC(=O)[C@H](CC(C)C)NC(=O)[C@H](CCCNC(=N)N)NC(=O)CNC(=O)CNC(=O)[C@H](CC(C)C)NC(=O)[C@H](CC(C)C)NC(=O)[C@H](CO)NC(=O)[C@H](CO)NC(=O)[C@H](C)NC(=O)[C@H](CCC(N)=O)NC(=O)CNC(=O)[C@@H](NC(=O)[C@H](C)NC(=O)[C@H](CO)NC(=O)[C@@H]1CCCN1C(=O)[C@H](C)NC(=O)[C@H](CCC(=O)O)NC(=O)[C@@H](NC(=O)[C@H](CCCNC(=N)N)NC(=O)[C@H](Cc1c[nH]c2ccccc12)NC(=O)[C@@H](NC(=O)[C@H](CCC(=O)O)NC(=O)[C@H](CS)NC(=O)[C@H](Cc1ccc(O)cc1)NC(=O)[C@@H](N)CO)[C@@H](C)O)[C@@H](C)O)[C@@H](C)O)C(=O)NCC(=O)N[C@@H](CCC(N)=O)C(=O)N[C@@H](CO)C(=O)N[C@@H](C)C(=O)N[C@@H](C)C(=O)N[C@@H](CO)C(=O)N[C@@H](CS)C(=O)N[C@@H](Cc1c[nH]cn1)C(=O)N[C@@H](Cc1c[nH]cn1)C(=O)N[C@@H](C)C(=O)O [E4-03] (H-SYCETWRTEAPSATGQASSLLGGRLLGQSAASCHHA-OH)
Normal lung fibroblasts [9]
  Col1A1 levels induced by TGFbeta: effective at reducing
  FN levels induced by TGFbeta: effective at reducing
[1]
  MMP-1 production: induced
IL-6
  expression of IL-6 mRNA: reduced
IL-6; A549 supernatant, 72 hours, ELISA
  IL-6 protein levels: significantly reduced

## CC(C)C[C@H](NC(=O)[C@H](CC(C)C)NC(=O)[C@H](CCCNC(=N)N)NC(=O)CNC(=O)CNC(=O)[C@H](CC(C)C)NC(=O)[C@H](CC(C)C)NC(=O)[C@H](CO)NC(=O)[C@H](CO)NC(=O)[C@H](C)NC(=O)[C@H](CCC(N)=O)NC(=O)CNC(=O)[C@@H](NC(=O)[C@H](C)NC(=O)CCCC[C@@H]1SC[C@@H]2NC(=O)N[C@@H]21)[C@@H](C)O)C(=O)NCC(=O)N[C@@H](CCC(N)=O)C(=O)N[C@@H](CO)C(=O)N[C@@H](C)C(=O)N[C@@H](C)C(=O)N[C@@H](CO)C(=O)N[C@@H](CS)C(=O)N[C@@H](Cc1c[nH]cn1)C(=O)N[C@@H](Cc1c[nH]cn1)C(=O)N[C@@H](C)C(N)=O [Bio96-17] (Biotin-ATGQASSLLGGRLLGQSAASCHHA-NH2)
[10]
  TGFbeta-induced SMA levels (myofibroblast differentiation): significant reduction
[8]; normal donor lung tissue cultured 120 hours
  secreted Col1A1 protein levels: significant reduction
[8]
  hydroxyproline levels: significant reductions
